The list does not hold the whole screen: it is rich in T/C values a quarter to a half above the control, in often repeated tests (any T/C) and in doses without a T/C. Other doses and runs of a compound stand elsewhere. T/C is the treated group as % of the vehicle group. Some entries give survivors of the animals treated and no T/C: the source files T/C as zero there, which appears to mark a toxic dose or a test without result, not a measured value. Some doses without a T/C left all or most animals alive at the check, yet need not have been tolerated: survival well below the control is almost never listed, so the zero probably covers shortened survival too. Survivors were counted at the toxicity check, usually on the fifth day, unless a day is given; later deaths do not show. Schedules are NCI's codes, taken here to give the interval after Q, in days (D) or hours (H), and the number of doses after X. Some structures stand for samples that the source files as different forms (salt, stereo form or complex); doses refer to the form tested. Some entries hold several experiments; the values are given in rising order. Where survival is the endpoint, the PubChem record calls one and a half times the control and up active, and a quarter to a half above the control has no call in these data; cut-offs in other NCI protocols can differ.

For 23 molecules, survivor count and T/C results are on record in PubChem BioAssay AID192 (DTP/NCI, 2004).

The subject of the test is BDF1 mice, B16 melanoma ip, median survival T/C. In words: NCI In Vivo Anticancer Drug Screen. Data for tumor model B16 Melanoma (intraperitoneal) in B6D2F1 (BDF1) mice. The note with it: T/C endpoint: median survival time, higher T/C = longer survival. A digest of the protocol:
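Mice with transplantable tumors; drug vs vehicle groups; endpoint survival or tumor size; value = T/C.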

Where [1] appears, read: dose: 100.0 mg/kg/injection, schedule: Q01DX009 (ip), vehicle: Klucel (hydroxypropylcellulose) (HPC).
[2] abbreviates: dose: 200.0 mg/kg/injection, schedule: Q01DX009 (ip), vehicle: Klucel (hydroxypropylcellulose) (HPC).
The mark [3] stands for this setting: dose: 400.0 mg/kg/injection, schedule: Q01DX009 (ip), vehicle: saline.
[4] abbreviates: dose: 100.0 mg/kg/injection, schedule: Q01DX009 (ip), vehicle: saline with Tween-80.
The mark [5] stands for this setting: dose: 50.0 mg/kg/injection, schedule: Q01DX009 (ip), vehicle: saline.
Where [6] appears, read: dose: 5.0 mg/kg/injection, schedule: Q01DX009 (ip), vehicle: saline.
[7] abbreviates: dose: 100.0 mg/kg/injection, schedule: Q01DX009 (ip), vehicle: saline.
Setting [8] is: dose: 40.0 micrograms/kg/injection, schedule: Q01DX009 (ip), vehicle: saline.

`O=Nc1c(N=O)c(N=O)c(N=O)c(N=O)c1N=O`: the survivor count by setting is: (dose: 10.0 mg/kg/injection, schedule: Q01DX009 (ip), vehicle: saline with Tween-80) 5 of 6; (dose: 20.0 mg/kg/injection, schedule: Q01DX009 (ip), vehicle: saline with Tween-80) 3 of 6; (dose: 40.0 mg/kg/injection, schedule: Q01DX009 (ip), vehicle: saline with Tween-80) 0 of 6; (dose: 80.0 mg/kg/injection, schedule: Q01DX009 (ip), vehicle: saline with Tween-80) 0 of 6.

Regarding `COC(C/C=C\C=C\CC/C=C/CC(C)/C=C/C(=C\C(=O)O)CC(=O)O)/C(C)=C\C=C(/C)C(=O)O` (stereo not drawn), the survivor count by setting is: (dose: 1.0 mg/kg/injection, schedule: Q01DX009 (ip), vehicle: saline) 7 of 10; (dose: 2.0 mg/kg/injection, schedule: Q01DX009 (ip), vehicle: saline) 0 of 10; (dose: 4.0 mg/kg/injection, schedule: Q01DX009 (ip), vehicle: saline) 0 of 10; (dose: 8.0 mg/kg/injection, schedule: Q01DX009 (ip), vehicle: saline) 0 of 10.

With `NC1=C(N2CC2)C(=O)C(N)=C(N2CC2)C1=O`, for the setting “dose: 100.0 micrograms/kg/injection, schedule: Q01DX009 (ip), vehicle: saline”, the T/C is 131 % of control.

With `Cc1c2cnccc2c(C)c2c1c1ccccc1n2CC1CO1` (stereo not drawn), the survivor count (dose: 30.0 mg/kg/injection, schedule: Q01DX009 (ip), vehicle: Klucel (hydroxypropylcellulose) (HPC)) is reported as 10 of 10.

Take `CC(C)=CCN1CCC2(C)c3cc(O)ccc3CC1C2C` (stereo not drawn): the T/C (dose: 3.12 mg/kg/injection, schedule: Q01DX009 (ip), vehicle: Klucel (hydroxypropylcellulose) (HPC)) is 127 % of control. Further, the survivor count is 9 of 10 (dose: 12.5 mg/kg/injection, schedule: Q01DX009 (ip), vehicle: Klucel (hydroxypropylcellulose) (HPC)); 10 of 10 (dose: 25.0 mg/kg/injection, schedule: Q01DX009 (ip), vehicle: Klucel (hydroxypropylcellulose) (HPC)); 10 of 10 (dose: 50.0 mg/kg/injection, schedule: Q01DX009 (ip), vehicle: Klucel (hydroxypropylcellulose) (HPC)); 10 of 10 under setting [1]; 5 of 10 under setting [2].

As to `C=CCNC(=O)NCC=C`, the survivor count under setting [3] is given as 2 of 6.

On to `CCCCCCCCCCCCCCCCC/C=C1\CC(=O)OC1=O`, for which the survivor count under setting [4] is given as 10 of 10.

As for `O=C(Nc1ccccc1)N(Cc1ccccc1)c1ccccc1`, the survivor count (dose: 100.0 mg/kg/injection, schedule: Q04DX003 (ip), vehicle: carboxymethylcellulose (CMC)) was 10 of 10 and the survivor count (dose: 400.0 mg/kg/injection, schedule: Q04DX003 (ip), vehicle: carboxymethylcellulose (CMC)) is on record as 10 of 10.

On to `CN1CCC2(CC1)SSC1(CCN(C)CC1)S2`, for which the T/C under setting [5] was 133 % of control. Where the note is “dose: 400.0 mg/kg/injection, schedule: Q04DX003 (ip), vehicle: saline”, the survivor count is 5 of 10.

As to `O=C1c2ccccc2C(=O)c2c3c(cc(NCCNCCO)c21)N(CCO)CCN3`, the T/C is 126 % of control (dose: 25.0 mg/kg/injection, schedule: Q01DX009 (ip), vehicle: DMSO) and 144 % of control (dose: 50.0 mg/kg/injection, schedule: Q01DX009 (ip), vehicle: DMSO). The survivor count (dose: 400.0 mg/kg/injection, schedule: Q01DX009 (ip), vehicle: DMSO) is given as 8 of 10.

On to `CN(CCCOS(C)(=O)=O)CCCOS(C)(=O)=O`, for which the T/C under setting [6] was 128 % of control and the T/C (dose: 12.5 mg/kg/injection, schedule: Q01DX009 (ip), vehicle: saline) was 126 % of control. The survivor count is reported as 10 of 10 under setting [5]; 6 of 6 (dose: 80.0 mg/kg/injection, schedule: Q01DX009 (ip), vehicle: saline); 10 of 10 under setting [7].

In the case of `COC(=O)C1(C)CCC(c2ccc(OC)cc2)CC1=O` (stereo not drawn), the survivor count under setting [1] was 10 of 10.

Regarding `COc1cc2c(Cc3ccc(OC)c(OC)c3)[n+](Cc3ccccc3)ccc2cc1NCc1ccccc1`, the survivor count reads like this: (dose: 12.5 mg/kg/injection, schedule: Q01DX009 (ip), vehicle: saline with Tween-80) 0 of 10; (dose: 25.0 mg/kg/injection, schedule: Q01DX009 (ip), vehicle: saline with Tween-80) 0 of 10.

As to `O=C1C(N2CC2)=C(N2CC2)C(=O)C(N2CC2)=C1N1CC1`, the survivor count (dose: 20.0 micrograms/kg/injection, schedule: Q01DX009 (ip), vehicle: saline) is listed as 10 of 10; the survivor count under setting [8] is reported as 10 of 10; the survivor count (dose: 80.0 micrograms/kg/injection, schedule: Q01DX009 (ip), vehicle: saline) was 10 of 10. For the same molecule, the T/C under setting [8] is 140 % of control.

`O=C(Nc1ccc(N=C=S)cc1Cl)c1cc(Cl)cc(Cl)c1O`: the survivor count under setting [1] is 0 of 10 and 2 of 10; the survivor count under setting [2] was 0 of 10 and 5 of 10.

For the molecule `C=CCN(CC=C)c1ccc(N(CC)CC)cc1`, the survivor count (dose: 200.0 mg/kg/injection, schedule: Q04DX003 (ip), vehicle: Klucel (hydroxypropylcellulose) (HPC)) is listed as 10 of 10 and the survivor count (dose: 400.0 mg/kg/injection, schedule: Q04DX003 (ip), vehicle: Klucel (hydroxypropylcellulose) (HPC)) is 6 of 10.

As to `Oc1ccc(Nc2ccnc3cc(Cl)ccc23)cc1CN(CCCl)CCCl`, the survivor count (dose: 2.5 mg/kg/injection, schedule: Q01DX009 (ip), vehicle: saline) is given as 12 of 12; the survivor count under setting [6] is 12 of 12; the survivor count (dose: 10.0 mg/kg/injection, schedule: Q01DX009 (ip), vehicle: saline) was 12 of 12.

For `CC(C)=Cc1ccccc1`, the survivor count is 9 of 10 (dose: 400.0 mg/kg/injection, schedule: Q01DX009 (ip), vehicle: saline with Tween-80) and 10 of 10 (dose: 400.0 mg/kg/injection, schedule: Q04DX003 (ip), vehicle: saline with Tween-80).

For the molecule `ClCc1c2ccccc2c(CCl)c2ccccc12`, where the note is “dose: 3.0 mg/kg/injection, schedule: Q01DX009 (ip), vehicle: Klucel (hydroxypropylcellulose) (HPC)”, the T/C is 132 % of control.

`COc1ccc(/C=C(\C)[N+](=O)[O-])cc1OC`: the survivor count is 9 of 10 (dose: 50.0 mg/kg/injection, schedule: Q01DX009 (ip), vehicle: other) and 8 of 10 (dose: 100.0 mg/kg/injection, schedule: Q01DX009 (ip), vehicle: other).

As to `CC(CO)NC(=O)C1C=C2c3cccc4[nH]cc(c34)CC2N(C)C1` (stereo not drawn), the survivor count is 10 of 10 under setting [7] and 7 of 10 under setting [3].

For the molecule `COc1ccc(NC(=O)Oc2ccc(Cl)c(C)c2)cc1`, the T/C under setting [4] is 125 % of control.

As for `COCC1OC(OC2OCC3OC4(OCC(O)(C(C)OC)C5OCOC54)OC3C2OC)C(OC)C(O)C1OC1OC(C)C(OC)C(OC2OC(C)C3OC4(CC(O)C(OC5CC(OC6CC(C)([N+](=O)[O-])C(OC)C(C)O6)C(OC(=O)c6c(C)c(Cl)c(O)c(Cl)c6OC)C(C)O5)C(C)O4)OC3(C)C2O)C1O` (stereo not drawn), the survivor count under setting [7] is given as 10 of 10.
